Binding data for two molecules are collected here from article PMC6684320.

Sequences of proteins named here, by UniProt entry; tags and fusion partners are left off. A change or cut given only in a name is not applied to a line headed by its entry.
UniProt P18206: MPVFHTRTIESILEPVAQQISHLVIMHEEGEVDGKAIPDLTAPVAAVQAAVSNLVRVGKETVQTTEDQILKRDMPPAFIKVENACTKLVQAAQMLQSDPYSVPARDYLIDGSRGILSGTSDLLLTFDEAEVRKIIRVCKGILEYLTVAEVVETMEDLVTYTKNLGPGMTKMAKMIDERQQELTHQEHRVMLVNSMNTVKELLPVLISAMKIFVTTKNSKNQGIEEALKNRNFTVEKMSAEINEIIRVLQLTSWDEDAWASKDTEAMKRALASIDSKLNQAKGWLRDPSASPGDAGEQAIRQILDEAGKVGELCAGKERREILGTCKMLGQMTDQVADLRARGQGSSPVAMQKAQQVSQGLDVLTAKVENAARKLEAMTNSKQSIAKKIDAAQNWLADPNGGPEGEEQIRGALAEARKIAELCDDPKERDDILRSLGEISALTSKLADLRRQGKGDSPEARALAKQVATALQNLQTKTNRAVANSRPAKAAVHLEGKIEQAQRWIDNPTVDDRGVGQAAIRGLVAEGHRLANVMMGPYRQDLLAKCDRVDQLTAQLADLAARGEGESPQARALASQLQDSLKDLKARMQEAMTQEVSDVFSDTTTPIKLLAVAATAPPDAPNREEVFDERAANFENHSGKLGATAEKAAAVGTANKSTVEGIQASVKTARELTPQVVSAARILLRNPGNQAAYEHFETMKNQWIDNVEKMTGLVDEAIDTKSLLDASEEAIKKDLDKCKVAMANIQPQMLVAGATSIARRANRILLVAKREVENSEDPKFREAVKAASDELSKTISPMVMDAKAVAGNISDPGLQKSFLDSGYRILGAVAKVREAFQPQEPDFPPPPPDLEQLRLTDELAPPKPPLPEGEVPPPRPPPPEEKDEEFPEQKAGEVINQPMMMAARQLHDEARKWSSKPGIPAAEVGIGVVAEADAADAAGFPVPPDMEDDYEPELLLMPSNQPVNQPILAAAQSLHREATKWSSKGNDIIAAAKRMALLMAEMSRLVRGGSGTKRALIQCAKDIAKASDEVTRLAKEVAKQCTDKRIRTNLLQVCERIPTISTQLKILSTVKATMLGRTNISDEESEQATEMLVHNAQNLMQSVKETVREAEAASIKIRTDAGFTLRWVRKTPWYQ

Results are given in words; binding and its absence hold for the method and conditions named. Binding seen in cells or lysates may run through a third protein. Binding calls can cover weak binding; strength is not graded here.

The target of experiment [1] is T1, VE-cadherin (human (endogenous in HUVECs)) (UniProt P33151).
T1 sequence: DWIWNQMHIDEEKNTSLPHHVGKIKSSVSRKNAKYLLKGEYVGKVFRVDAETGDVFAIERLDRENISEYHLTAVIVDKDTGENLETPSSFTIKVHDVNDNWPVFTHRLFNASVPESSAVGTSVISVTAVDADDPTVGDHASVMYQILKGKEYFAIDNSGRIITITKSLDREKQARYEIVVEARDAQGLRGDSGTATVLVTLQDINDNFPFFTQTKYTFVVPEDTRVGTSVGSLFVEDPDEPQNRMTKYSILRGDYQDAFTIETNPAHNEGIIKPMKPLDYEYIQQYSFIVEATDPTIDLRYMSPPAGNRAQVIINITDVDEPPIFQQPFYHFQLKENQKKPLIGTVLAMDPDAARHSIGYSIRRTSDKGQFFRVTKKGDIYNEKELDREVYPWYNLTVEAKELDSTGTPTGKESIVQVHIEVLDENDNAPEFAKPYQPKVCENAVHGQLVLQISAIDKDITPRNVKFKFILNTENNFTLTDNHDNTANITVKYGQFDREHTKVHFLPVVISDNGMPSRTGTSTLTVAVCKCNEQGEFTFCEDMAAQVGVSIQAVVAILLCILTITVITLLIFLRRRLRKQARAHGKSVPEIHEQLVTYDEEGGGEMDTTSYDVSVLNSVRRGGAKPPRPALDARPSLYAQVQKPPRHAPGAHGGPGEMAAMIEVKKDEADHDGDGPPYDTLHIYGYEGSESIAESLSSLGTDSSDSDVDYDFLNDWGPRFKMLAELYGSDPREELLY
As to the kind of experiment: co-IP; HUVECs (siControl or siWNT5a) after scratch-wound; cells cross-linked with 0.5 mM DSP, 20 min RT; pellet of the lysate digested in SDS IP buffer, 10 min 100°C, diluted in lysis buffer (25 mM Tris/HCl pH 7.5, 1% NP-40, 1% deoxycholic acid, 150 mM NaCl); IP with 2 μg anti-vinculin (V9264) or anti-VE-cadherin (sc-9989) on protein G agarose, overnight 4°C; Western blot. (In general: A western blot detects proteins with antibodies after separation by electrophoresis.)

Experiment [2] concerns the target T1, VE-cadherin (human (endogenous in HUVECs)). As to the kind of experiment: proximity ligation; HUVECs (siControl or siWNT5a) after scratch-wound, fixed; Duolink In Situ Red Mouse/Rabbit kit with rabbit anti-vinculin (V4139) and mouse anti-VE-cadherin (sc-9989); PLA dots counted only at adherens junctions (VE-cadherin staining).
In experiment [3] the target is vinculin (human (endogenous in HUVECs)) (UniProt P18206). As to the kind of experiment: co-IP; HUVECs (siControl or siWNT5a) after scratch-wound; cells cross-linked with 0.5 mM DSP, 20 min RT; pellet of the lysate digested in SDS IP buffer, 10 min 100°C, diluted in lysis buffer (25 mM Tris/HCl pH 7.5, 1% NP-40, 1% deoxycholic acid, 150 mM NaCl); IP with 2 μg anti-vinculin (V9264) or anti-VE-cadherin (sc-9989) on protein G agarose, overnight 4°C; Western blot.

Take vinculin (from UniProt P18206-2): the binding result in experiment [1] and in experiment [2] was “binds” in each case.

B1: VE-cadherin (protein, UniProt P33151 48-784)
chain: T1 sequence
As to B1, the binding entry in experiment [3] is “binds”.
